Protein sequences, listed by entry. Tags and fused reporters are not part of them.
UniProt Q13936, whole entry: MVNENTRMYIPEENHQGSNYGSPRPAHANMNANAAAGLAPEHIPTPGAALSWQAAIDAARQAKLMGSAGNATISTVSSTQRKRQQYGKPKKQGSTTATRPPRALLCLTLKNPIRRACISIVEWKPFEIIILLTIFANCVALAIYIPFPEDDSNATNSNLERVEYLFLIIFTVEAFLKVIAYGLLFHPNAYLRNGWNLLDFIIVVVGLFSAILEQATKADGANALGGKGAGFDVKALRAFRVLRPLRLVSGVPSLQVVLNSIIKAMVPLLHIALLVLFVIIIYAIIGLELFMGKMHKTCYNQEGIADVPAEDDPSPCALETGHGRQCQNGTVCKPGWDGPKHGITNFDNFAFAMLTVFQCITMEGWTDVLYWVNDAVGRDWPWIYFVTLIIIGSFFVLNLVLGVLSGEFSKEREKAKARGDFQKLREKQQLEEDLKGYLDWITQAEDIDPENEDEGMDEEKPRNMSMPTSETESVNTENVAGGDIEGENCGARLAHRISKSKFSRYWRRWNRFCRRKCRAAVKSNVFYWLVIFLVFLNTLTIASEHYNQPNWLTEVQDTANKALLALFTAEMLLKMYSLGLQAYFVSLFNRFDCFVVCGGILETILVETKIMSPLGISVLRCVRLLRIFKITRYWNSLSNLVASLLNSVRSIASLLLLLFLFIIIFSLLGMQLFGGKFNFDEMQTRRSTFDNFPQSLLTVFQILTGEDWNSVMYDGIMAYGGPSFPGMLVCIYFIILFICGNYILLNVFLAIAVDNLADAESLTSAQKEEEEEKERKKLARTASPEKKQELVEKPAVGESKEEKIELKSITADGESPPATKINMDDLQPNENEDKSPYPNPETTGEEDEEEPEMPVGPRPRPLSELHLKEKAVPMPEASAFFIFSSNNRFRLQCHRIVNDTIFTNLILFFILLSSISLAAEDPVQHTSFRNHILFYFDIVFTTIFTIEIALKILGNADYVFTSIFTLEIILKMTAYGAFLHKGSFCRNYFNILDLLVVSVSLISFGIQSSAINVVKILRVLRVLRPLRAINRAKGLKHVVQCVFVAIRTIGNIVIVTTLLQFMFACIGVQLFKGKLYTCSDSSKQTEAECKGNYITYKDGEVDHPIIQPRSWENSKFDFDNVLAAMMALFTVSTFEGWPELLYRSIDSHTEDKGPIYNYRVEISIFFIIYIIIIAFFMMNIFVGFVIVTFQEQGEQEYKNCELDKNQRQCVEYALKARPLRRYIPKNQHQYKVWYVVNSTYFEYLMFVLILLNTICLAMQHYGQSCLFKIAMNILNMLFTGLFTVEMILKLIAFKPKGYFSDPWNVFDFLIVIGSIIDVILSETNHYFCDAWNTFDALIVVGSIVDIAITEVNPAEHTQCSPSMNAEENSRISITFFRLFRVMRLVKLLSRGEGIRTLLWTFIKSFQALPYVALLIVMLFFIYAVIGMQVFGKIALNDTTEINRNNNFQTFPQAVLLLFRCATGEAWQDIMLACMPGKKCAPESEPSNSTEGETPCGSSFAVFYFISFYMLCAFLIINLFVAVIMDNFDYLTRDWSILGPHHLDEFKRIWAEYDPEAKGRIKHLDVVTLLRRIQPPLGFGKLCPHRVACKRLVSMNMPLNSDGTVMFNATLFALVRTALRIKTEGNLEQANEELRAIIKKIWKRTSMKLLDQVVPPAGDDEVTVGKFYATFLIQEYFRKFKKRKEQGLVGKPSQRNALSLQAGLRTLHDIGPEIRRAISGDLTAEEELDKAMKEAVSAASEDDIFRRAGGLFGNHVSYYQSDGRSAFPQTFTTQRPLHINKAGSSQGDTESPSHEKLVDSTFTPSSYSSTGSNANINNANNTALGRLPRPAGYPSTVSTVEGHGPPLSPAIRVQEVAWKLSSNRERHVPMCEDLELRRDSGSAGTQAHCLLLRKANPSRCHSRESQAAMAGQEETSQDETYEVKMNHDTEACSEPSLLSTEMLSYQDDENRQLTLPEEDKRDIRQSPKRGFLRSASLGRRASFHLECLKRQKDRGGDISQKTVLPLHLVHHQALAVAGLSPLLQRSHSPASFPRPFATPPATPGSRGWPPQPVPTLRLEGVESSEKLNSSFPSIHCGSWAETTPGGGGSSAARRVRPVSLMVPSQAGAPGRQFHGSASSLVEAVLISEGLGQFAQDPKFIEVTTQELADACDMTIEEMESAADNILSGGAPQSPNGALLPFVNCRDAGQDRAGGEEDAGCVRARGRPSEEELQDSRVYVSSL

According to PMC5715595 (British Journal of Pharmacology, 2017):

Target: CaV1.2 (ICaL) (Homo sapiens, UniProt Q13936)
Assay: in vitro
Details: pH 7.4
Protocol: and CiPA Initiative Studies
=============================================================
In vitro studies on other ion channels […]
through NaV1.5, KV4.3, KV7.1/mink, Kir2.1, KV1.5, CaV1.2 and CaV3.2 channels.
35-mm dish culture in the conditions mentioned in standard cell culture conditions. Experiments were performed with a cell density enabling isolated cells for patch clamping. Cells were continuously superfused with extracellular medium (1-2 mL∙minute-1) at room temperature.
D-glucose 10, HEPES 10 and the final pH adjusted to 7.4±0.02 with NaOH for recording NaV1.5, KV4.3, KV7.1/mink, Kir2.1, KV1.5 and CaV3.2 currents. It was (in mM): NaCl 110, KCl 4, BaCl2 20, MgCl2 1, D-glucose 20, HEPES 10 and the final pH adjusted to 7.4 ± 0.02 with NaOH for recording the CaV1.2 current. Compositions of the intracellular solution to fill the pipette are […]
After formation of a Gigaohm seal between the patch electrodes and individual cells (pipette resistance range: 2.0 MΩ - 7.0 MΩ; seal resistance range: > 1 GΩ) the cell membrane across the pipette tip was ruptured to assure electrical access to the cell interior (whole-cell patch-configuration). […] As soon as a stable seal was established outward tail currents were measured upon pulses described in the Table S2. If current density was judged to be too low for measurement, another cell was recorded. […]

COC(=O)C1=C(C)NC(C)=C(C(=O)OC)C1c1ccccc1[N+](=O)[O-] [Nifedipine, reference compound]
inhibition at 1 µM: 88%
